Where “and” joins values, the source holds several entries; their conditions need not be identical. Equal values may be shown once. This is one part of the list. The main result of the screen is listed elsewhere. These columns were measured beside it and carry no call. Most of these compounds were active or inconclusive in the main read-out, so they are no random draw. The note in brackets gives the kind of curve behind each potency; many fits are weak.
Experiment: qHTS Assay for Modulators of Lamin A Splicing
Conditions: HeLa LMNA splicing GFP/RFP minigene ratio, 48 h
Procedure, shortened: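 S3 HeLa stable clones carrying a lamin A-EGFP splicing minigene plus DsRed2 were seeded at 600 cells/well in Opti-MEM with 2% FBS, pin-dosed and incubated 48 h at 37°C. Acumen cytometry (488 nm) gave the GFP/RFP total-intensity ratio.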

[1] = measured here: GFP splicing reporter channel
[2] = measured here: RFP viability control channel

| SMILES | AC50 [1] | AC50 [2] |
| --- | --- | --- |
| CSc1nc(C)cc(SCC(=O)Nc2ccc(Cl)cc2Cl)n1 | 35.5 µM [rising, single point] | 35.5 µM [rising, single point] |
| O=C(NCC1(c2ccccc2)CCCC1)c1ccccc1 | – | 14.1 µM [rising, single point] |
| Cc1cccc(Nc2nc(N)c([N+](=O)[O-])c(N3CCOCC3)n2)c1 | 2.24 µM [rising, single point] | – |
| Cc1ccc(NC(=O)c2nn(C)c3c2CS(=O)(=O)c2ccccc2-3)c(Cl)c1 | 0.0316 µM [falling, full curve, poor fit] | 0.0126 µM [falling, full curve, poor fit] |
| O=[N+]([O-])c1cc(S(=O)(=O)N2CCCCCC2)ccc1F | – | 11.2 µM [rising, partial curve] |
| Cc1ccc(NC(=S)Nc2cccc3cnccc23)c(C)c1 | 0.00316 µM [falling, full curve, poor fit] | – |
| CCOc1ccc(-c2nnn(CC#N)n2)cc1OC | – | 25.1 µM [rising, single point] |
| C#CC[N+](C)(C)CCCCCCCCC | 35.5 µM [falling, single point] | 35.5 µM [falling, single point] |
| COc1cccc(N2CC(O)=C(c3nc4ccccc4c(=O)[nH]3)C2=N)c1 | – | 2.82 µM [rising, partial curve] |
| CCCCCCCCCc1nc2sc3c(c2c(=O)n1NC(=O)c1ccc([N+](=O)[O-])cc1)CC(C)(C)OC3 | – | 3.98 µM [rising, full curve] |
| CCCOc1c(OC)cccc1C1CC(=O)Nc2cc3c(cc21)OCO3 (stereo not given) | 15.8 µM [falling, single point] | 17.8 µM [falling, single point] |
| Oc1c(C(c2ccccc2)N2CCC3(CC2)OCCO3)sc2nc(-c3ccco3)nn12 (stereo not given) | 0.0126 µM [falling, full curve, poor fit] | 0.00316 µM [falling, full curve, poor fit] |
| COc1cc(CN(C(=O)c2ccco2)c2ccc(C)cc2)ccc1O | – | 35.5 µM [rising, single point] |
| CN(CC(=O)NC(=O)NCc1ccccc1)Cc1cccc(Cl)c1Cl | 11.2 µM [rising, partial curve, poor fit] | 12.6 µM [rising, partial curve] |
| CN1CCN(C(=S)Nc2ccc(Cl)cc2)CC1 | – | 3.98 µM [rising, full curve, poor fit] |
| CCCN(CC(=O)Nc1ccc(C)cc1Br)CC(=O)Nc1ccc(F)c(F)c1F | – | 17.8 µM [rising, partial curve, poor fit] |
| CC1(c2ccc(Cl)cc2Cl)OCC(Cn2ccnc2)O1 (stereo not given) | – | 22.4 µM [rising, single point] |
| COc1nc(Nc2cccc(C(F)(F)F)c2)nc(OC)n1 | 22.4 µM [rising, single point] | 20 µM [rising, single point] |
| Cc1ccccc1NC(=S)c1nc2ccccc2[nH]1 | – | 17.8 µM [rising, single point] |

Some of the entries so far, bar-delimited.
SMILES | AC50 [1] | AC50 [2]
O=C(NCC1(c2ccccc2)CCCC1)c1ccccc1 | – | 14.1 µM [rising, single point]
Cc1cccc(Nc2nc(N)c([N+](=O)[O-])c(N3CCOCC3)n2)c1 | 2.24 µM [rising, single point] | –

Further records follow.

| SMILES | AC50 [1] | AC50 [2] |
| --- | --- | --- |
| COc1ccc(OC)c(S(=O)(=O)Nc2cc3c(cc2C)n(C)c(=O)c(=O)n3C)c1 | 0.355 µM [rising, partial curve] | – |
| Cc1ccc(NC(=O)CN(C)S(=O)(=O)c2ccc(Br)s2)cc1F | – | 25.1 µM [rising, single point] |
| C/C(=N\NC(=O)Cn1c(C)nc2ccccc21)c1cccs1 | 5.62 µM [rising, partial curve, poor fit] | 14.1 µM [rising, partial curve] |
| O=S(=O)(c1ccc(Br)cc1)N1CCN=C1SCc1cccnc1 | 0.282 µM [rising, partial curve, poor fit] | – |
| CCOC(=O)c1sc(NC(=O)CSc2n[nH]c(-c3ccncc3)n2)c(C#N)c1C | – | 3.55 µM [rising, full curve] |
| CC(C)CN=C(NS(=O)(=O)c1ccccc1)C(Cl)(Cl)Cl | 35.5 µM [falling, single point] | 2 µM [rising, single point] |
| COc1ccc(P(=O)(COc2ccc([N+](=O)[O-])cc2)c2ccc(OC)cc2)cc1 | 0.316 µM [rising, partial curve] | 0.178 µM [rising, full curve, poor fit] |
| Oc1ccc(N=Cc2ccc(-c3cccs3)s2)cc1 | 35.5 µM [rising, single point] | – |
| Cc1ccc(NC(=O)NCc2ccc3c(c2)CCN3C(=O)c2ccccc2)c(Cl)c1 | 11.2 µM [falling, partial curve, poor fit] | – |
| COc1ccc(-n2cc(CNCCc3cscn3)c(-c3ccccc3Cl)n2)cc1 | 11.2 µM [falling, partial curve, poor fit] | – |
| CN(C)CCCn1c(SCCN2C(=O)c3ccccc3C2=O)nc2ccccc2c1=O | 35.5 µM [falling, single point] | 35.5 µM [falling, single point] |
| CCC(=O)c1ccc(N2CCN(C(=O)c3cc([N+](=O)[O-])ccc3F)CC2)c(F)c1 | – | 0.0158 µM [falling, full curve, poor fit] |
| Cc1ccccc1NS(=O)(=O)c1cc(C(=O)N2CCc3ccccc3C2)ccc1C | 11.2 µM [rising, single point] | 15.8 µM [rising, single point] |
| Cc1ccc(Nc2ncc3c(n2)CC(c2ccco2)CC3=O)c(C)c1 (stereo not given) | – | 0.794 µM [falling, full curve, poor fit] |
| CCC1C/C(=C/c2ccco2)C(=O)/C(=C/c2ccco2)C1 (stereo not given) | – | 15.8 µM [rising, partial curve] |
| CN(Cc1ccccc1)S(=O)(=O)c1ccc(NS(=O)(=O)Cc2ccccc2)cc1 | – | 35.5 µM [rising, single point] |
| O=C(CSc1nnc(-c2ccc(O)cc2)n1Cc1ccco1)N1CCc2ccccc2C1 | 35.5 µM [rising, single point] | – |
| CC(=O)C1=C(c2ccc(Br)cc2)C(=O)c2ccccc2C1=O | 35.5 µM [falling, single point] | 31.6 µM [falling, single point] |
| N#CC1=C(N)SC(N)=C(C#N)C1CCC1CCCCC1 | 3.16 µM [rising, partial curve] | 2.82 µM [rising, single point] |

| SMILES | AC50 [1] | AC50 [2] |
| --- | --- | --- |
| C=C(C)[C@H]1CC[C@]2(CO)CC[C@]3(C)[C@@H](CC[C@H]4[C@@]5(C)CC[C@@H](O)C(C)(C)[C@@H]5CC[C@@]43C)[C@H]12 | 1.26 µM [rising, single point] | 14.1 µM [falling, single point] |
| CC(=O)Nc1ccc(C(=S)NCc2ccco2)cc1 | – | 15.8 µM [rising, single point] |
| CCCCOc1ccc(CNC(=O)CN2CCSc3ccccc32)cc1 | – | 28.2 µM [rising, single point] |
| c1cncc(-c2noc(-c3ccco3)n2)c1 | 15.8 µM [rising, partial curve, poor fit] | – |
| CCCCCCSC1=C(C#N)C(=O)NC2(CCCCC2)S1 | 0.00891 µM [falling, full curve, poor fit] | – |
| NC/C=C\C(=O)O | – | 6.31 µM [falling, single point] |
| Oc1cccc(/C=N/Nc2cc(N3CCOCC3)nc(N3CCOCC3)n2)c1 | – | 12.6 µM [rising, partial curve] |
| CCOC(=O)C1CCC(CN(Cc2ccccc2)S(=O)(=O)c2ccc(Cl)cc2)CC1 (stereo not given) | – | 1.41 µM [falling, partial curve] |
| CC1(C)CC(=O)C=C(NNC(=O)c2ccccc2)C1 | – | 0.158 µM [falling, full curve, poor fit] |
| CN(c1ccc(C(=O)NCCC2=CCCCC2)cc1)S(C)(=O)=O | 6.31 µM [rising, partial curve] | 12.6 µM [rising, partial curve, poor fit] |
| CC1=C(C(=O)OCc2ccccc2)C(c2ccc(Cl)cc2Cl)NC(=O)N1CCCCCC(=O)O (stereo not given) | 35.5 µM [rising, single point] | 28.2 µM [rising, single point] |
| COC/C=C/C1=CC2=CC(=O)C(C)(OC(=O)c3cnc4ccccc4n3)C(=O)C2=CN1CCOC (stereo not given) | – | 3.55 µM [rising, single point] |
| COC(=O)c1c(C(=O)OC)c(-c2ccc(C)cc2)n2c1CCC2 | – | 35.5 µM [rising, single point] |
| O=C(NCC(c1ccco1)N1CCN(c2ccccc2)CC1)OCc1ccccc1 (stereo not given) | – | 12.6 µM [rising, partial curve] |
| O=C(CSc1ncccn1)NC(=O)Nc1ccc2c(c1)OCCO2 | – | 0.00501 µM [falling, full curve, poor fit] |
| NC(N)=NC(=O)Cc1c(Cl)cccc1Cl | 447 nM [falling, partial curve] and 35.5 µM [falling, single point] | 10 µM [rising, single point] and 355 nM [rising, partial curve, poor fit] |
| Cc1ccc(CCc2nnc(SCC(=O)Nc3cc(Cl)ccc3Cl)n2-c2ccccc2)o1 | – | 7.94 µM [rising, partial curve, poor fit] |
| COc1ccc(N2CCN(C(CNC(=O)OCc3ccccc3)c3ccco3)CC2)cc1 (stereo not given) | 11.2 µM [rising, partial curve, poor fit] | 15.8 µM [rising, partial curve] |

— PubChem BioAssay AID1487 (National Center for Advancing Translational Sciences (NCATS), 2009)
